Assay results: the supplement of paper PMC8256030
Values joined by “and” are separate entries in the source; they are usually repeats but may differ in a detail not shown here. Equal entries are not always repeated. Structures can show the parent of a compound that is named as a salt. The list shows a part of the results. This data set is noisy: repeats of one test often differ as much as different tests do.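 HEK293T cells were given each compound shortly before transfection with a reporter in which red mCherry is followed by the SARS-CoV-2 frameshift element and then GFP in the −1 frame, so GFP appears only after frameshifting.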

Columns and labels:
[1] = tested on: SARS-CoV-2 -1 PRF reporter mCherry-FSE-GFP(-1); experiment: mCherry (red) intensity as percent of control; higher = higher upstream reporter expression; conditions: 10 µM; 24 h; HEK293T
[2] = tested on: SARS-CoV-2 -1 PRF reporter mCherry-FSE-GFP(-1); experiment: percent effect, decrease of GFP/mCherry ratio (-1 PRF reporter) relative to controls; higher = stronger frameshift inhibition; conditions: 10 µM; 24 h; HEK293T

SMILES | mCherry [1] | percent effect [2]
N[C@@H]1CCCC[C@H]1N.O=C([O-])C(=O)[O-].[Pt+2] | 108% | -3.73%
CC(C)=CCC[C@](C)(O)[C@@H]1CC=C(C)CC1 [levomenol] | 84.4% | -3.67%
O=S(=O)(O)c1ccc2[nH]c(-c3ccccc3)nc2c1 [ensulizole] | 90% | -1.15%
C[N+]1(C)CCC(OC(=O)C(O)(c2ccccc2)C2CCCC2)C1 (configuration not stated) | 93.7% | -0.0239%
CN1[C@@H]2CC[C@H]1C[C@@H](OC(=O)c1c[nH]c3ccccc13)C2 [tropisetron] | 91.6% | -3.75%
CC(C)(CO)C(O)C(=O)NCCC(=O)O (configuration not stated) | 124% | 2.95%
Cc1cc(C)cc(OCC2CNC(=O)O2)c1 (configuration not stated) [metaxalone] | 88.8% | 0.663%
CC[C@H]1OC(=O)[C@H](C)C(=O)[C@H](C)[C@@H](O[C@@H]2O[C@H](C)C[C@H](N(C)C)[C@H]2O)[C@](C)(OC)C[C@@H](C)C(=O)[C@H](C)[C@H]2N(CCCCn3cnc(-c4cccnc4)c3)C(=O)O[C@]12C [telithromycin] | 106% | -1.01%
CC(=O)[C@@]1(O)CC[C@H]2[C@@H]3C=C(Cl)C4=CC(=O)[C@@H]5C[C@@H]5[C@]4(C)[C@H]3CC[C@@]21C | 101% | 0.783%
C/N=C(/NC#N)NCCSCc1csc(NC(=N)N)n1 [tiotidine] | 114% | -4.27%
CN1Cc2c(N)cccc2C(c2ccccc2)C1 (configuration not stated) | 96.9% | -5.9%
CC(=O)OCC(CCn1cnc2cnc(N)nc21)COC(C)=O [famciclovir] | 90.6% and 66.4% | -3.81% and -3.19%
CCC(C(=O)OCCOCCN(CC)CC)c1ccccc1 (configuration not stated) [butamirate] | 86.8% | -1.59%
O=C(O)c1ccccc1Nc1cccc(Cl)c1Cl [clofenamic acid] | 71% | -13.6%
O=C(O)CCC(=O)O [Katasuccin] | 129% | -6.43%
CC1CC(=O)NN=C1c1cc(-n2ccnc2)cs1 (configuration not stated) [motapizone] | 136% | -0.503%
CC(=O)O[C@H]1Cc2ccccc2N(C(N)=O)c2ccccc21 [Eslicarbazepine acetate] | 89.4% | 0.793%
CCOC(=O)C1=C(C)NC(C)=C(C(=O)OCC)C1c1ccccc1/C=C/C(=O)OC(C)(C)C [Lacidipine] | 81% | -4.65%

Record cards, from the list above. Order of values: mCherry [1]	percent effect [2]
C/N=C(/NC#N)NCCSCc1csc(NC(=N)N)n1 [tiotidine] as listed: 114%	-4.27%
CC[C@H]1OC(=O)[C@H](C)C(=O)[C@H](C)[C@@H](O[C@@H]2O[C@H](C)C[C@H](N(C)C)[C@H]2O)[C@](C)(OC)C[C@@H](C)C(=O)[C@H](C)[C@H]2N(CCCCn3cnc(-c4cccnc4)c3)C(=O)O[C@]12C [telithromycin] as listed: 106%	-1.01%

Remaining list, next part.

SMILES | mCherry [1] | percent effect [2]
Cc1cn([C@H]2O[C@@H](CO)[C@H](O)[C@H]2F)c(=O)[nH]c1=O [clevudine] | 73.5% | 0.636%
Oc1ccc(Cl)cc1Sc1cc(Cl)ccc1O [fenticlor] | 107% | -3.42%
Cc1nnc(SCC2=C(C(=O)O)N3C(=O)[C@@H](NC(=O)Cn4cnnn4)[C@H]3SC2)s1 [cefazolin] | 77.3% | -11.8%
N[C@H](C(=O)O)c1ccc(O)cc1 [oxfenicine] | 102% | -2.58%
CCCNC(=O)NS(=O)(=O)c1ccc(Cl)cc1 [chlorpropamide] | 93.7% | 2.22%
C[C@]12C=CC(=O)C=C1C(Cl)=C[C@@H]1[C@@H]2[C@@H](O)C[C@@]2(C)[C@H]1CC[C@]2(O)C(=O)CO [cloprednol] | 79.6% | -1.79%
CCC=CCC=CCC=CCC=CCC=CCC=CCCC(=O)O | 59.7% | -6.58%
O=c1[nH]c(=O)n([C@H]2C[C@H](O)[C@@H](CO)O2)cc1/C=C/Br [brivudine] | 67.2% | -10.5%
CN(CCOc1ccc(CC2SC(=O)NC2=O)cc1)c1ccccn1 (configuration not stated) [Rosiglitazone] | 95.5% | 0.371%
CN(C/C=C/c1ccccc1)Cc1cccc2ccccc12 | 87.2% | -3.34%
CN(C)C(=N)NC(=N)N | 54% | -2.12%
O=C1c2ccccc2C(=O)C1c1ccc(Cl)cc1 [clorindione] | 105% | -0.283%
CCCSc1nc(N[C@@H]2C[C@H]2c2ccc(F)c(F)c2)c2nnn([C@@H]3C[C@H](OCCO)[C@@H](O)[C@H]3O)c2n1 [Brilinta] | 107% | -1.53%
CCc1cccc(NC2CC3CCC2C3)c1 (configuration not stated) | 52.7% | -13.6%
CC(=O)OCC(=O)NCCCOc1cccc(CN2CCCCC2)c1 [Roxatidine acetate·HCl] | 122% | 5.09%
Cc1ccc(C(=O)c2cc(O)c(O)c([N+](=O)[O-])c2)cc1 [tolcapone] | 85.8% | -0.0452%
CCC(CC)(CC(=O)Nc1cccc(/C=C/c2nc(C3CCC3)cs2)c1)C(=O)O [cinalukast] | 114% | -5.79%
COC[C@@H](c1ccc(C(F)(F)F)cc1)N1CCN(C2(C)CCN(C(=O)c3c(C)ncnc3C)CC2)C[C@@H]1C [vicriviroc] | 102% | -5.01%
